# Reference: the supplement of paper PMC3334620
# The full ranking holds about 33,000 sequences; the median of “E-score (-0.5 to 0.5)” is about -0.016, and the highest 2% start at about 0.3. The list shows a part of the results.
# Target: T1, Yer184c (UniProt P39961)
# T1 sequence: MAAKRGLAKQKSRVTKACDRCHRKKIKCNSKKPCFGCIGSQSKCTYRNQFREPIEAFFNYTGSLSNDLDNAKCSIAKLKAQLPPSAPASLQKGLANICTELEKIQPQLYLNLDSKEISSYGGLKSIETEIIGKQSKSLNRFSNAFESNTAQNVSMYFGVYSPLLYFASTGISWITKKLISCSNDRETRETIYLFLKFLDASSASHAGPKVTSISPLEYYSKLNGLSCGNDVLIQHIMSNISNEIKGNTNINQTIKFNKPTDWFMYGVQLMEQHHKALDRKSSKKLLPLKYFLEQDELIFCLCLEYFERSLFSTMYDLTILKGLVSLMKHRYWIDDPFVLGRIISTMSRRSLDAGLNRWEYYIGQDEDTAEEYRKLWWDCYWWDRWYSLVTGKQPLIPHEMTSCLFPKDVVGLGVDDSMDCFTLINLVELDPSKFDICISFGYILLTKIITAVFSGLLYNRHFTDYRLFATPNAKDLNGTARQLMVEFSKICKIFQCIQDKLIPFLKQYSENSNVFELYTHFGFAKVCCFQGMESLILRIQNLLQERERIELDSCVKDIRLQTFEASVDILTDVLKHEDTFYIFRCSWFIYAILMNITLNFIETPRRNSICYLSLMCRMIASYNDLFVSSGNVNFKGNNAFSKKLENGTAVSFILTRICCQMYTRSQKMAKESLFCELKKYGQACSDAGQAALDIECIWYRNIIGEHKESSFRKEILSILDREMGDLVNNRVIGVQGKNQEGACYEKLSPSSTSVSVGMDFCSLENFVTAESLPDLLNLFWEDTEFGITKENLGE
# Assay: PBM E-score (8-mer binding enrichment) (E-score (-0.5 to 0.5)); higher = stronger / more preferred TF binding
# Details: protein concentration: 100 nM; construct: GST-full length
# Summary of the method: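 Detection of bound protein used fluorescent anti-GST, with scans normalised by masliner. The proteins were GST-tagged yeast transcription factors applied at about 100-200 nM to universal all-10-mer Agilent arrays made double-stranded by primer extension. Each ungapped eight-base word, pooled with its reverse complement, was scored with an E-score from the Universal PBM Analysis Suite.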
row,Sequence,PBM E-score
1,ACAGTCCA,-0.0452
2,ACAAGAGG,-0.0454
3,GGTTCCTA,0.081
4,GATGGGAA,-0.192
5,CGCCCCGA,0.0207
6,AGGTTAAG,-0.122
7,CCCCAACA,-0.318
8,CCTGAAGG,-0.317
9,GCACAAAC,0.0449
10,GGCGAGCC,-0.0299
11,CGGTAACG,0.147
12,CGGCCTAA,0.207
13,CTAGCGAA,-0.134
14,AGATGAAA,0.108
15,CATCGATC,-0.171
16,CAGACGCA,-0.0829
17,GTGACGTA,-0.138
18,AGAGTTCG,0.0922
19,AGTTCCAG,-0.101
20,CGTAAGGA,-0.139
21,ATCGATGA,0.0134
22,CCTCTCCC,-0.237
23,ACCTACGA,-0.0808
24,CCAGTCGC,-0.0844
25,AGTGCCGC,0.123

row,Sequence,PBM E-score
1,CAGGCCTA,-0.0279
2,CACTGATA,-0.114
3,CCTCAGAA,-0.188
4,ATAAGATG,0.0593
5,ATACCACC,-0.0742
6,CATGCTAG,-0.139
7,CATATGTC,-0.091
8,CTCTATCC,-0.0872
9,GTCGACTA,0.192
10,CTTGCTCC,0.0248
11,GGTTCTAC,-0.0886
12,AATTCAAG,0.0925
13,ACTTGGGA,-0.0928
14,GCTCAAAA,0.199
15,ACCAGCAG,-0.299
16,CACTCTAC,-0.0363
17,TCAAACCA,0.0929
18,CGGTGGTC,-0.0197
19,ACATTCAT,0.00303
20,AGCCAGGA,-0.171
21,ATCGGGCA,-0.101
22,GGCTCACC,-0.166
23,TGCAACAA,0.148
24,GTATTAGA,0.149
25,GCGGAGCC,0.0549

row,Sequence,PBM E-score
1,AAGGAAAG,-0.121
2,CCCTTATA,-0.0606
3,CTCAAGTC,-0.22
4,AACGGGGC,-0.128
5,CTTGTGAA,-0.0589
6,AACGTCAA,0.0142
7,ATAGGACC,-0.156
8,AATATGGT,0.0409
9,AAACGCCA,0.089
10,CGTAGTCC,-0.207
11,AAGGTGCA,-0.0345
12,CTCATGCA,-0.206
13,TTATTAAA,0.233
14,GGCATGCC,0.257
15,AGTAGCCA,-0.302
16,ATTTTCTC,0.022
17,GATTGATA,0.0572
18,AGATTCGA,-0.0378
19,AAAGACCT,-0.0941
20,CATGCTGC,-0.208
21,CTGATAGA,0.166
22,ACAGGCAA,-0.0104
23,CATAGGGC,-0.273
24,GACGGGTA,-0.16
25,AGAGCGGC,-0.0082

row,Sequence,PBM E-score
1,ATATGATC,0.0489
2,ATTGCCAA,-0.0576
3,GTGAAGCA,-0.0446
4,GCCAAAGA,-0.222
5,AATGTGGA,-0.0334
6,CATTCAGG,-0.18
7,ACCGATGC,0.125
8,CAAGAGCG,-0.176
9,GTAGACAC,-0.00282
10,CGGTGTGA,0.13
11,GAATGCGC,0.16
12,ATGACTAA,-0.0122
13,CCTGGGGA,-0.391
14,CATGCGAG,-0.0852
15,GCTGAGCC,-0.0367
16,AGCTTCAG,-0.0447
17,AAGAAAGG,-0.0259
18,AGAAAATG,0.184
19,ACAGGGAT,-0.193
20,ATCGAAGC,0.0785
21,ACCAACCA,-0.147
22,CAGGGACC,-0.295
23,CGTCGTTC,0.229
24,CAGGTAAA,0.134
25,CACACCGA,0.192

row,Sequence,PBM E-score
1,ACATAACT,-0.133
2,GGTTGACA,-0.00887
3,GATACTGA,-0.0608
4,GCTGCTAC,-0.139
5,CCATCTAG,-0.222
6,CGTTTACA,0.0306
7,CCCATTAC,-0.229
8,GGGCCGAC,0.132
9,ACTCGGCG,0.325
10,CTTGCTAA,-0.00145
11,ACCGTATG,-0.0719
12,ACCAAGAT,0.013
13,AGTGAAGG,-0.136
14,CCACCAAA,0.0181
15,CCATGGGA,-0.211
16,AGCCCCAT,-0.257
17,CATGAGAA,0.119
18,CCTGGGTA,-0.148
19,CTTCCGTC,0.209
20,CCGGGGCA,-0.00537
21,CCATTCAC,-0.0255
22,AAAACCCT,-0.192
23,CTTTGGAC,0.159
24,CAAGCCTA,-0.0384
25,ATTCTCGG,0.345

row,Sequence,PBM E-score
1,CAAGGTCC,-0.0303
2,AGCTTTCG,0.105
3,GCACAAGA,0.00151
4,TCCCGAGA,0.305
5,GTCACCAC,-0.124
6,ACCAACGA,0.0181
7,GCGGGCTA,-0.04
8,ACGAGCAT,-0.278
9,CCGTACTA,0.168
10,GATTACTA,0.0673
11,AAACCCCG,0.0829
12,CACTAGCG,-0.09
13,CCAGGGTA,-0.174
14,CCCACTCA,-0.298
15,CCTAGTTA,0.0429
16,CATCGTAG,-0.234
17,ACGCTTAC,-0.222
18,GGCCATAC,-0.00371
19,ACGAGTCC,-0.0334
20,GGACCAAA,0.116
21,CATATCAC,-0.0551
22,ATTGTAGC,0.0678
23,AGGTATCA,-0.234
24,ATCTATCC,0.194
25,ACGTTACG,0.0294

row,Sequence,PBM E-score
1,TATCCCAA,-0.0284
2,ACGACACG,-0.121
3,AGACTTAG,-0.18
4,GTAACCCA,0.0208
5,ACTAAGAA,0.0409
6,AGGAACAA,0.0767
7,TACATTGA,0.176
8,TATGAGGA,-0.105
9,AGTTCGGC,0.295
10,AATAGCGC,0.0274
11,CTCTGAGC,-0.131
12,AAAGGACC,-6e-05
13,CTGGCCCC,-0.138
14,CTACTGGC,-0.297
15,AACACTCG,0.0864
16,GGTCCACA,-0.151
17,ATGACCAA,0.00989
18,CTCCAGCA,-0.321
19,CCGAACAC,0.215
20,AAGTGTTC,-0.00384
21,CGGGAACC,0.0784
22,AAGTATGA,0.052
23,GTAGTCAA,0.115
24,TCGTAAGA,0.0508
25,GTGTAACA,-0.0685

row,Sequence,PBM E-score
1,AAGAGAAT,0.0316
2,ATTGCTAC,-0.0688
3,GCCCCTAC,-0.288
4,AGTTAAAA,0.176
5,GGATAGCC,0.198
6,ACAAGGTA,0.0323
7,GTATATAC,-0.0816
8,AAACTCCG,0.319
9,ACCTTTAA,0.138
10,TCGACGCA,-0.00982
11,CATTAAGC,0.0322
12,CTGTCATC,0.0383
13,GTCATGAA,0.0972
14,AATGTGAT,-0.0713
15,CTCGTCCA,-0.0079
16,AAGATCGA,0.166
17,AGGGTGTA,-0.152
18,AGGCTACT,-0.0871
19,ACGGTCGC,-0.197
20,GATTCACC,-0.105
21,GTCGACCA,-0.0393
22,AGCGCACC,-0.0934
23,AAATGAGG,-0.174
24,GCCTCGCC,-0.34
25,ATGTCGAC,0.0646

# Taken from above:
# Value for GTCGACCA under PBM E-score: -0.0393
# Value for AGGCTACT under PBM E-score: -0.0871
# Value for CTTGTGAA under PBM E-score: -0.0589
# Value for GGTTCTAC under PBM E-score: -0.0886
# Value for GGCATGCC under PBM E-score: 0.257
# Value for CAGGTAAA under PBM E-score: 0.134
# Value for GCGGAGCC under PBM E-score: 0.0549

# Later entries.

row,Sequence,PBM E-score
1,GACCCCTC,-0.274
2,GACCACAC,-0.124
3,GCGCGCGC,0.273
4,GGCCCTAC,-0.279
5,CCTTCTCA,-0.154
6,CTTTGTGA,0.063
7,AGCTTTGA,0.102
8,CGGAAGTC,0.232
9,ACCCGGCC,0.255
10,AAAGAGTA,-0.0516
11,CCTGAAAG,0.0373
12,AGGCAACG,-0.106
13,GATTGGTA,0.088
14,CCTCGAAG,-0.0114
15,ATAAAGTC,0.102
16,AGGTTATA,-0.101
17,CCGTAGTA,0.109
18,GGCTTCAA,-0.00541
19,ATACTGAT,0.161
